In article PMC11601584, “The RNA receptor RIG-I binding synthetic oligodeoxynucleotide promotes pneumonia survival”:

What was measured:
[1] = molecular target: T1, rhRIG-I (236-925), CARD-less (Homo sapiens) (UniProt O95786); assay: fluorescence anisotropy; settings: complete phosphorothioate backbone, FP: 20 mM Hepes pH 7.5, 150 mM NaCl, 2 mM TCEP, 4 mM MgCl2, 5% glycerol, 25 C, 2.5 nM labeled oligo, recombinant protein, residues 236-925, protein details: N-terminal His-tag, removed by TEV, label: 5' FAM, single-stranded DNA
T1 sequence (looked up): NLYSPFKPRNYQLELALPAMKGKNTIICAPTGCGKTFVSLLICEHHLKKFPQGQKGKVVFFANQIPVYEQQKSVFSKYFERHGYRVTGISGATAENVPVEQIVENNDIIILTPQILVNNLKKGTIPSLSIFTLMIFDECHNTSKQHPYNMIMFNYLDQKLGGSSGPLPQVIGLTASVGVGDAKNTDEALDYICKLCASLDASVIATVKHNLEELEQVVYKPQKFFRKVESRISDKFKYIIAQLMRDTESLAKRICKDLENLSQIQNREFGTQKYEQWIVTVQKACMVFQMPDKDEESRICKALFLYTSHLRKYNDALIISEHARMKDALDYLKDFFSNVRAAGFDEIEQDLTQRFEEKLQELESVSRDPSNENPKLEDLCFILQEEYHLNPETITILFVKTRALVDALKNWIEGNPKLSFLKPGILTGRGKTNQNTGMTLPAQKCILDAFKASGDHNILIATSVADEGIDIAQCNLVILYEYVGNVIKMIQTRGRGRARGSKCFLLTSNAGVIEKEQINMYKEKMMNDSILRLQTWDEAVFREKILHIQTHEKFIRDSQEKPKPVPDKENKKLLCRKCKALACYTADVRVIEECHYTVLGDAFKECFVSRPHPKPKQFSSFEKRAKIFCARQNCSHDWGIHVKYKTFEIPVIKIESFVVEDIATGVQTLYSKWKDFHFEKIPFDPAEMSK

[2] = molecular target: T2, RIG-I, endogenous, MLE-15 cytosolic lysate (Mus musculus) (UniProt Q6Q899); assay: pull-down (streptavidin, anti-RIG-I immunoblot); settings: lysate of ODN-treated cells, RNA polymerase III inhibitor ML-60218 had no effect; complete phosphorothioate backbone; protein in an extract; single-stranded …
T2 sequence (looked up, limits assumed): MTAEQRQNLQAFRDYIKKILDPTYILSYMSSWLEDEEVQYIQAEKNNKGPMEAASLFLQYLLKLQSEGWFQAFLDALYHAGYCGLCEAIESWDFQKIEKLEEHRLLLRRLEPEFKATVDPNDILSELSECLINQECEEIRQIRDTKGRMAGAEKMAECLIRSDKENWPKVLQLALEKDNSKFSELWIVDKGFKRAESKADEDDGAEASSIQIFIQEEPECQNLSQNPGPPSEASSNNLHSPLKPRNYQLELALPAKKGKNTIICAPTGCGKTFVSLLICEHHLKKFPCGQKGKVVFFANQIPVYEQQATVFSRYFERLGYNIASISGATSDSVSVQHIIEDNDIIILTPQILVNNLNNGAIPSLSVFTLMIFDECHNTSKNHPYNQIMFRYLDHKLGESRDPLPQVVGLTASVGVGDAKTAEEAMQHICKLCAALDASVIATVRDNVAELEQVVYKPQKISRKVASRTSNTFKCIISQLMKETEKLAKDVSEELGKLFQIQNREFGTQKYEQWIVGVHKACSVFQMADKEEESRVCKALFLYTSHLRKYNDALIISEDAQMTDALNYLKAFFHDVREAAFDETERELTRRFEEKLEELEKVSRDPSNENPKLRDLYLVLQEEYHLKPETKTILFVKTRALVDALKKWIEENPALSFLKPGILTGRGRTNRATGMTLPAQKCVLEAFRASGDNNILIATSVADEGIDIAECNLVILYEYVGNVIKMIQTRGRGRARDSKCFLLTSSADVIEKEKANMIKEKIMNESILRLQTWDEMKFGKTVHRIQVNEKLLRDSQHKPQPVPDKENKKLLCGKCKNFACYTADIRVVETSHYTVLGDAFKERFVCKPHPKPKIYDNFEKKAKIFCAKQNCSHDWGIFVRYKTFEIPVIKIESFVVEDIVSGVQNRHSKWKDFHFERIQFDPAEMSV

[3] = molecular target: T3, RIG-I, endogenous, HBEC3-KT cytosolic lysate (Homo sapiens) (UniProt O95786); assay: pull-down (streptavidin, anti-RIG-I immunoblot); settings: lysate of ODN-treated cells; complete phosphorothioate backbone; protein in an extract; single-stranded DNA
T3 sequence (looked up, limits assumed): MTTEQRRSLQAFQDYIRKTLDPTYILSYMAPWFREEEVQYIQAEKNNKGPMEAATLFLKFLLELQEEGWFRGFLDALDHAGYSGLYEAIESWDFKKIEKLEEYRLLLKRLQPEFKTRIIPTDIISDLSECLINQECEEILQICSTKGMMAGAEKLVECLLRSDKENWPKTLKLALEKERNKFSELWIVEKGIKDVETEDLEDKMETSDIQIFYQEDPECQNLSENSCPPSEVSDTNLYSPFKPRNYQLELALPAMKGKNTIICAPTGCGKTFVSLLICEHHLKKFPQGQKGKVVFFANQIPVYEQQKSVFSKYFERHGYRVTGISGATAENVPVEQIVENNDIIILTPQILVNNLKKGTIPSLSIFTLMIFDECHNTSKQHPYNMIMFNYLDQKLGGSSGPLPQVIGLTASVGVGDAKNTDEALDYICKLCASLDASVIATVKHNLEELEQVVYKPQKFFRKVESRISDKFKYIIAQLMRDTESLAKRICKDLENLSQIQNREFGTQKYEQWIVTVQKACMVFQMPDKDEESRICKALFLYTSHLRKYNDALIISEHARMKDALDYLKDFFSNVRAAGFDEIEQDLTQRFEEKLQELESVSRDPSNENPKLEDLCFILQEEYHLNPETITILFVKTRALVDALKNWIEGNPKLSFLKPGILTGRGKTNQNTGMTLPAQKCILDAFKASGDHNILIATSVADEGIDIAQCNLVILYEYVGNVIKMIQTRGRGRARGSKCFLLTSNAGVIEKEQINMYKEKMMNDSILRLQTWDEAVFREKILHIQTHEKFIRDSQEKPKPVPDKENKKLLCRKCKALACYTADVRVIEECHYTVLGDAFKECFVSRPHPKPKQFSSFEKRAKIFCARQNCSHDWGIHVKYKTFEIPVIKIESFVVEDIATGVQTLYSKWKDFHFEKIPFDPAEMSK

[4] = molecular target: T2, RIG-I, endogenous, MLE-15 cytosolic lysate (Mus musculus); assay: co-immunoprecipitation (anti-RIG-I, FITC fluorescence); settings: lysate of ODN-treated cells; complete phosphorothioate backbone; protein in an extract; single-stranded DNA
[5] = molecular target: T3, RIG-I, endogenous, HBEC3-KT cytosolic lysate (Homo sapiens); assay: as above; settings: lysate of ODN-treated cells; complete phosphorothioate backbone; protein in an extract; single-stranded DNA

## TCGTCGTCGTTCGAACGACGTTGAT [ODN M362, FAM]
[1]; ADP-AlF4, 4 mM MgCl2, Kd only in figure
  binding result: binds
[1]; ATP, 4 mM MgCl2, Kd only in figure
  binding result: binds

## TCGTCGTCGTTCGAACGACGTTGAT [ODN M362, biotinylated]
[2]
  binding result: binds
[3]
  binding result: binds

## TCGTCGTCGTTCGAACGACGTTGAT [ODN M362, FITC]
[4]
  binding result: binds
[5]
  binding result: binds

Construct, isoform or probe ends are uncertain for at least one entry. For part of these data: At least one result comes from cells or an extract, where the contact may be indirect. Protein sequences can lack the tags named with them. For part of these data: At least one verdict was read from the data and is not stated in words by the source.
